Data as given in PubChem BioAssay AID1053208 (Peter MacCallum Cancer Centre, 2014).
The deposit covers about 17,000 reagents; shown is a part drawn at random. 788 of all reagents (4.7%) were called active. 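Calls rest on z-score classes alone; an extra cut-off of viability at most 70% of control was not applied to them.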 Entries without a mark were called inactive. Reagents against one gene are numbered here. Not all columns of the deposit are shown. No sequences are given here.

Test: 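Synthetic lethal interactions between gene loss and doxorubicin in osteosarcoma cells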 (primary screen)
System: mouse osteosarcoma cells, early-passage culture from an engineered mouse model of fibroblastic bone tumour
Knock-down reagent: siRNA pool against mouse genes, 40 nM
Timing: about 120 h (48 h before drug, then 72 h with drug)
Challenge: doxorubicin 100 nM for 72 h, roughly 30-40% inhibitory dose
Detection: 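Viability read as ATP luminescence after 72 h of 100 nM doxorubicin or none, duplicate wells averaged, scaled to non-targeting siRNA, then expressed as robust z-scores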
Scale: viability z-score with doxorubicin: higher = more viable cells under doxorubicin; viability z-score without drug: higher = more viable cells with knock-down alone
Hit rule: 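Called active if knock-down leaves viability unchanged without drug (z within -2 to 2) but lowers it with doxorubicin (z at or under -2)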

| target gene | reagent no. | combined z-score class | viability z-score with doxorubicin | viability z-score without drug |
| --- | --- | --- | --- | --- |
| Tspan6 | 1 | no change with or without drug | 1.12 | 0.84 |
| Astl | 1 | no change with or without drug | -1.57 | 0.17 |
| Btbd3 | 1 | no change with or without drug | 0 | -0.34 |
| Or4f61 | 1 | no change with or without drug | 0.67 | 1.01 |
| Sdad1 | 1 | no change with or without drug | -0.67 | -0.17 |
| Thnsl2 | 1 | no change with or without drug | -0.56 | -0.17 |
| P2rx2 | 1 | no change with or without drug | -0.9 | -0.17 |
| Rnf5 | 1 | no change with or without drug | 0.22 | 0.17 |
| Gm9975 | 1 | no change with or without drug | -1.8 | -0.17 |
| Ly86 | 1 | no change with or without drug | -1.35 | -1.35 |
| Fate1 | 1 | no change with or without drug | -0.11 | -0.67 |
| Pcdhb14 | 1 | low cell count with and without drug | -2.81 | -2.19 |
| Naxe | 1 | no change with or without drug | -1.91 | 0.17 |
| Cdc42ep5 | 1 | no change with or without drug | -0.22 | 0.51 |
| Evi2a | 1 | no change with or without drug | 0.56 | 0.17 |
| Rplp2 | 1 | low cell count with and without drug | -5.06 | -6.91 |
| Stmn2 | 1 | no change with or without drug | -0.45 | -0.67 |
| Vmn1r206 | 1 | no change with or without drug | -1.24 | -0.67 |
| Pter | 1 | no change with or without drug | 1.35 | -0.51 |
| Cstl1 | 1 | no change with or without drug | 0 | 0.51 |
| Tgfbrap1 | 1 | no change with or without drug | 0.22 | -0.67 |
| Upk3a | 1 | low cell count with doxorubicin only (active) | -2.7 | -0.51 |
| Rptor | 1 | no change with or without drug | -0.67 | -0.84 |
| Slc7a7 | 1 | no change with or without drug | 0.79 | 0.84 |
| Sumo3 | 1 | no change with or without drug | -0.67 | -0.51 |
| Cd55b | 1 | no change with or without drug | 0.45 | 0.34 |
| Ubr5 | 1 | no change with or without drug | 0.34 | 0.34 |
| Ccng1 | 1 | no change with or without drug | 0.9 | 0.34 |
| Tra2a | 1 | no change with or without drug | 1.35 | -0.17 |
| Tra2a | 2 | no change with or without drug | -0.67 | 0 |
| Rsph6a | 1 | no change with or without drug | -0.45 | 1.69 |
| Yipf6 | 1 | no change with or without drug | 0 | 0.51 |
| Abhd12 | 1 | no change with or without drug | 0 | 0.84 |
| 1700067K01Rik | 1 | high cell count with and without drug | 2.59 | 2.53 |
| Zfp280d | 1 | no change with or without drug | -0.11 | -0.84 |
| Or5g29 | 1 | no change with or without drug | -1.24 | 0.34 |
| A430107D22RIK | 1 | no change with or without drug | -0.34 | 0.84 |
| Or2o1 | 1 | no change with or without drug | 0.34 | -0.34 |
| Ftsj1 | 1 | no change with or without drug | 0.45 | -1.18 |
| Ddx25 | 1 | no change with or without drug | 0 | 0.84 |
| Bdh2 | 1 | no change with or without drug | 0.9 | 0.34 |
| Gm14296 | 1 | no change with or without drug | -0.67 | 0.17 |
| Gm14296 | 2 | no change with or without drug | 0.22 | 0.34 |
| Kcnc1 | 1 | high cell count without drug only | 0.79 | 2.19 |
| Kcnc1 | 2 | no change with or without drug | -0.22 | -0.84 |
| Hebp2 | 1 | no change with or without drug | 1.8 | 0.67 |
| Dcdc2a | 1 | no change with or without drug | -0.22 | 0.84 |
| Prkag2 | 1 | no change with or without drug | 0 | 1.18 |
| Pdyn | 1 | no change with or without drug | -0.9 | -0.51 |
| Cenpe | 1 | high cell count with doxorubicin only | 2.81 | 0.51 |

Limited to “viability z-score with doxorubicin”, for 7 of the entries above:
Vmn1r206	-1.24
Pter	1.35
Cstl1	0
Tgfbrap1	0.22
Upk3a	-2.7 (active)
Rptor	-0.67
Slc7a7	0.79
